Laboratory results from publication PMC7412702.
Results are given in words; binding and its absence hold for the method and conditions named. In cells and extracts the contact can be indirect. Some results given as binding are weak or reduced against the parent protein; the word gives no strength. Tags and fused reporters may be left off the sequences shown.

Target: T1, HA-tagged wild-type human ZP1 (human), P60852
T1 chain: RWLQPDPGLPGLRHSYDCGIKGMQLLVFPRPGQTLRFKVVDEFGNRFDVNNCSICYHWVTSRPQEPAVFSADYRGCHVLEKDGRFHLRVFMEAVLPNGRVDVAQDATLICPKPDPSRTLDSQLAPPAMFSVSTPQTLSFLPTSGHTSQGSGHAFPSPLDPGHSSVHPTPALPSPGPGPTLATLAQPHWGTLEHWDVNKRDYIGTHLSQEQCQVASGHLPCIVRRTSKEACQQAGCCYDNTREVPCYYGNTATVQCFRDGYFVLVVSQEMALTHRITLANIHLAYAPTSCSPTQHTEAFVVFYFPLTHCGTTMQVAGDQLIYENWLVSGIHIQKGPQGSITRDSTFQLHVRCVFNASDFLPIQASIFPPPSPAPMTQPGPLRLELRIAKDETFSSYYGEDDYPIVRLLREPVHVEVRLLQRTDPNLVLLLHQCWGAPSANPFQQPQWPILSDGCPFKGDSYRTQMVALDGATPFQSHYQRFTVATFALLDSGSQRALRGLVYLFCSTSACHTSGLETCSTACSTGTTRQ
Experiment: co-IP; HeLa cells co-transfected with HA-ZP1 (WT, or WT with R109H), FLAG-ZP2 or MYC-ZP3; lysate, anti-HA antibody on Protein A/G magnetic beads overnight at 4°C, six washes with lysis buffer, Western blot
Settings: remark: other sources report otherwise

- binding: binds
B1: MYC-tagged human wild-type ZP3, P21754-1 23-350 (protein)
chain: QPLWLLQGGASHPETSVQPVLVECQEATLMVMVSKDLFGTGKLIRAADLTLGPEACEPLVSMDTEDVVRFEVGLHECGNSMQVTDDALVYSTFLLHDPRPVGNLSIVRTNRAEIPIECRYPRQGNVSSQAILPTWLPFRTTVFSEEKLTFSLRLMEENWNAEKRSPTFHLGDAAHLQAEIHTGSHVPLRLFVDHCVATPTPDQNASPYHTIVDFHGCLVDGLTDASSAFKVPRPGPDTLQFTVDVFHFANDSRNMIYITCHLKVTLAEQDPDELNKACSFSKPSNSWFPVEGSADICQCCNKGDCGTPSHSRRQPHVMSQWSRSASRN
